From patent US20170189504A1, “NOVEL PEPTIDES AND COMBINATION OF PEPTIDES FOR USE IN IMMUNOTHERAPY AGAINST VARIOUS CANCERS” (immatics biotechnologies GmbH, priority 2015, published 2017)
For part of these data: Expression values are those of the mRNA of the gene that encodes the peptide; a gene is named only where it was looked up.

Legend:
[1] = tested on: HLA-A*24; experiment: Identification and relative LC-MS quantitation of HLA-A*24-presented tumor-associated peptides on tissue samples (presentation profiles, Tables 14A, 14B, 16, FIG. 1); parameters: species or system human; key to Presentation score GC / Presentation score NSCLC / Presentation score PCA / Presentation score GB / Presentation score HCC / Presentation score RCC: specifically presented on tumors (++++); very highly over-presented on tumors compared to a panel of normal tissues (+++); highly over-presented on tumors compared to a panel of normal tissues (++); over-presented on tumors compared to a panel of normal tissues (+); details: for Presentation score NSCLC: non-small cell lung cancer (N = 91) vs panel of normal tissues (N = 70); for Presentation score PCA: prostate cancer (N = 40) vs panel of normal tissues (N = 70); for Peptide Presentation on cancer entities: Table 14A, HLA-A*24-binding tumor-associated peptides, cancer entities on which the peptide was found presented
[2] = tested on: source genes (mRNA); experiment: Gene and exon expression of source genes, TCGA tumor samples compared with normal tissue samples (Lonsdale, 2013) (Table 17); parameters: species or system human; details: for Over-expression category of source gene (target coverage), DLBC: DLBC = Lymphoid neoplasm diffuse large B-cell lymphoma (N = 48); for Over-expression category of source gene (target coverage), LAML: LAML = Acute Myeloid Leukemia (N = 173)
[3] = tested on: source genes (mRNA); experiment: Expression profiling of source genes by in-house RNASeq of tumor and normal tissues (Table 18, FIG. 2); parameters: species or system human; key: very highly over-expressed in tumors compared to a panel of normal tissues (+++); highly over-expressed in tumors compared to a panel of normal tissues (++); over-expressed in tumors compared to a panel of normal tissues (+); details: source gene of peptide; for Expression score BRCA: BRCA tumors vs panel of normal tissues; for Expression score OSCAR: esophageal cancer incl. gastric-esophageal junction (N = 11) vs panel of normal tissues; for Expression score NSCLC: non-small cell lung cancer (N = 11) vs panel of normal tissues; for Expression score OC: ovarian cancer (N = 12) vs panel of normal tissues; for Expression score PC: pancreatic cancer (N = 26) vs panel of normal tissues; for Expression score SCLC: small cell lung cancer (N = 10) vs panel of normal tissues; for Expression score UBC: urinary bladder cancer (N = 10) vs panel of normal tissues; for Expression score UEC: uterine cancer (N = 10) vs panel of normal tissues; for Expression score AML: acute myeloid leukemia (N = 11) vs panel of normal tissues
[4] = FIG. 1, A*24 positive samples, only samples with presentation shown

277: peptide found in PTK7 (gene looked up) (VYQGHTALL; listed as Homo sapiens) [compound 277]
number of cell lines where the peptide was found to be presented ([1]; FIG. 1, A*24 positive samples, cell lines include benign prostate hyperplasias): 2 | number of cancer tissues where the peptide was found to be presented [1, 4]: 64 | number of normal tissues where the peptide was found to be presented [1, 4]: 4 | Presentation score GC ([1]; HLA-A*24 peptides, gastric cancer (N = 44) vs panel of normal tissues (N = 70)): ++ | Presentation score NSCLC ([1]; HLA-A*24 peptides): +++ | Presentation score PCA ([1]; HLA-A*24 peptides): + | Peptide Presentation on cancer entities [1]: GB, GC, NSCLC, PCA | Target coverage: over-expression category of source gene, BLCA ([2]; Bladder urothelial carcinoma (N = 408), tumor expression more than 2-fold above highest 75% percentile of high and medium risk normal tissues): B (>= 20% of tumors above the cutoff, but <50%) | Target coverage: over-expression category of source gene, BRCA ([2]; Breast cancer (N = 1104), tumor expression more than 2-fold above highest 75% percentile of high and medium risk normal tissues): B (>= 20% of tumors above the cutoff, but <50%) | Target coverage: over-expression category of source gene, CHOL ([2]; Cholangiocarcinoma (N = 36), tumor expression more than 2-fold above highest 75% percentile of high and medium risk normal tissues): C (>=5% of tumors above the cutoff, but <20%) | Target coverage: over-expression category of source gene, READ ([2]; Colon and rectal adenocarcinoma (N = 167), tumor expression more than 2-fold above highest 75% percentile of high and medium risk normal tissues): B (>= 20% of tumors above the cutoff, but <50%) | Target coverage: over-expression category of source gene, COAD ([2]; Colon and rectal adenocarcinoma (N = 462), tumor expression more than 2-fold above highest 75% percentile of high and medium risk normal tissues): B (>= 20% of tumors above the cutoff, but <50%) | Target coverage: over-expression category of source gene, ESCA ([2]; Esophageal cancer (N = 185), tumor expression more than 2-fold above highest 75% percentile of high and medium risk normal tissues): B (>= 20% of tumors above the cutoff, but <50%) | Target coverage: over-expression category of source gene, LUAD ([2]; Lung adenocarcinoma (N = 517), tumor expression more than 2-fold above highest 75% percentile of high and medium risk normal tissues): A (>=50% of tumors above the cutoff) | Target coverage: over-expression category of source gene, LUSC ([2]; Lung squamous cell carcinoma (N = 503), tumor expression more than 2-fold above highest 75% percentile of high and medium risk normal tissues): A (>=50% of tumors above the cutoff) | Target coverage: over-expression category of source gene, OV ([2]; Ovarian serous cystadenocarcinoma (N = 309), tumor expression more than 2-fold above highest 75% percentile of high and medium risk normal tissues): A (>=50% of tumors above the cutoff) | Target coverage: over-expression category of source gene, PAAD ([2]; Pancreatic ductal adenocarcinoma (N = 179), tumor expression more than 2-fold above highest 75% percentile of high and medium risk normal tissues): B (>= 20% of tumors above the cutoff, but <50%) | Target coverage: over-expression category of source gene, KIRP ([2]; Papillary kidney carcinoma (N = 291), tumor expression more than 2-fold above highest 75% percentile of high and medium risk normal tissues): C (>=5% of tumors above the cutoff, but <20%) | Target coverage: over-expression category of source gene, PRAD ([2]; Prostate adenocarcinoma (N = 498), tumor expression more than 2-fold above highest 75% percentile of high and medium risk normal tissues): B (>= 20% of tumors above the cutoff, but <50%) | Target coverage: over-expression category of source gene, SKCM ([2]; Skin cutaneous melanoma (N = 473), tumor expression more than 2-fold above highest 75% percentile of high and medium risk normal tissues): B (>= 20% of tumors above the cutoff, but <50%) | Target coverage: over-expression category of source gene, STAD ([2]; Stomach adenocarcinoma (N = 415), tumor expression more than 2-fold above highest 75% percentile of high and medium risk normal tissues): C (>=5% of tumors above the cutoff, but <20%) | Target coverage: over-expression category of source gene, UCEC ([2]; Uterine corpus endometrial carcinoma (N = 546), tumor expression more than 2-fold above highest 75% percentile of high and medium risk normal tissues): A (>=50% of tumors above the cutoff) | Expression score BRCA [3]: ++ | Expression score CRC ([3]; colorectal cancer (N = 20) vs panel of normal tissues): + | Expression score OSCAR [3]: +++ | Expression score GBC_CCC ([3]; gallbladder adenocarcinoma and cholangiocarcinoma (N = 3) vs panel of normal tissues): ++ | Expression score GC ([3]; gastric cancer (N = 11) vs panel of normal tissues): + | Expression score NSCLC [3]: +++ | Expression score OC [3]: ++ | Expression score PC [3]: + | Expression score PCA ([3]; prostate cancer and benign prostate hyperplasia (N = 5) vs panel of normal tissues): + | Expression score SCLC [3]: ++ | Expression score UBC [3]: ++ | Expression score UEC [3]: +++

183: peptide found in CD96 (gene looked up) (VFTSTARAF; listed as Homo sapiens) [compound 183]
Presentation score NSCLC ([1]; HLA-A*24 peptides): ++++ | Presentation score PCA ([1]; HLA-A*24 peptides): ++++ | Peptide Presentation on cancer entities [1]: NSCLC, PCA | Over-expression category of source gene (target coverage), DLBC ([2]; same cutoff): C (>=5% of tumors above the cutoff, but <20%) | Over-expression category of source gene (target coverage), LAML ([2]; same cutoff): A (>=50% of tumors above the cutoff) | Expression score AML [3]: ++ | Expression score NHL ([3]; non-Hodgkin lymphoma (N = 10) vs panel of normal tissues): +

214: peptide found in USP18 (gene looked up) (LYLKLWNLI; listed as Homo sapiens) [compound 214]
Presentation score HCC ([1]; HLA-A*24 peptides, hepatocellular carcinoma (N = 15) vs panel of normal tissues (N = 70)): ++++ | Presentation score NSCLC ([1]; HLA-A*24 peptides): ++++ | Peptide Presentation on cancer entities [1]: NSCLC, HCC | Over-expression category of source gene (target coverage), BLCA ([2]; BLCA = Bladder urothelial carcinoma (N = 408), same cutoff): A (>=50% of tumors above the cutoff) | Over-expression category of source gene (target coverage), BRCA ([2]; BRCA = Breast cancer (N = 1104), tumors more than 2-fold above highest 75% percentile of normal tissues): A (>=50% of tumors above the cutoff) | Over-expression category of source gene (target coverage), CHOL ([2]; CHOL = Cholangiocarcinoma (N = 36), same cutoff): B (>= 20% of tumors above the cutoff, but <50%) | Over-expression category of source gene (target coverage), COAD ([2]; COAD = Colon and rectal adenocarcinoma (N = 462), same cutoff): A (>=50% of tumors above the cutoff) | Over-expression category of source gene (target coverage), DLBC ([2]; same cutoff): B (>= 20% of tumors above the cutoff, but <50%) | Over-expression category of source gene (target coverage), ESCA ([2]; ESCA = Esophageal cancer (N = 185), same cutoff): B (>= 20% of tumors above the cutoff, but <50%) | Over-expression category of source gene (target coverage), GBM ([2]; GBM = Glioblastoma multiforme (N = 169), same cutoff): B (>= 20% of tumors above the cutoff, but <50%) | Over-expression category of source gene (target coverage), KICH ([2]; KICH = Kidney chromophobe (N = 66), same cutoff): B (>= 20% of tumors above the cutoff, but <50%) | Over-expression category of source gene (target coverage), KIRC ([2]; KIRC = Clear cell kidney carcinoma (N = 534), same cutoff): B (>= 20% of tumors above the cutoff, but <50%) | Over-expression category of source gene (target coverage), KIRP ([2]; KIRP = Papillary kidney carcinoma (N = 291), same cutoff): B (>= 20% of tumors above the cutoff, but <50%) | Over-expression category of source gene (target coverage), LAML ([2]; same cutoff): A (>=50% of tumors above the cutoff) | Over-expression category of source gene (target coverage), LGG ([2]; LGG = Lower grade glioma (N = 534), same cutoff): A (>=50% of tumors above the cutoff) | Over-expression category of source gene (target coverage), LIHC ([2]; LIHC = Liver hepatocellular carcinoma (N = 374), same cutoff): B (>= 20% of tumors above the cutoff, but <50%) | Over-expression category of source gene (target coverage), LUAD ([2]; LUAD = Lung adenocarcinoma (N = 517), same cutoff): A (>=50% of tumors above the cutoff) | Over-expression category of source gene (target coverage), LUSC ([2]; LUSC = Lung squamous cell carcinoma (N = 503), same cutoff): A (>=50% of tumors above the cutoff) | Over-expression category of source gene (target coverage), OV ([2]; OV = Ovarian serous cystadenocarcinoma (N = 309), same cutoff): A (>=50% of tumors above the cutoff) | Over-expression category of source gene (target coverage), PAAD ([2]; PAAD = Pancreatic ductal adenocarcinoma (N = 179), same cutoff): A (>=50% of tumors above the cutoff) | Over-expression category of source gene (target coverage), PRAD ([2]; PRAD = Prostate adenocarcinoma (N = 498), same cutoff): A (>=50% of tumors above the cutoff) | Over-expression category of source gene (target coverage), READ ([2]; READ = Colon and rectal adenocarcinoma (N = 167), same cutoff): A (>=50% of tumors above the cutoff) | Over-expression category of source gene (target coverage), SKCM ([2]; SKCM = Skin cutaneous melanoma (N = 473), same cutoff): A (>=50% of tumors above the cutoff) | Over-expression category of source gene (target coverage), STAD ([2]; STAD = Stomach adenocarcinoma (N = 415), same cutoff): B (>= 20% of tumors above the cutoff, but <50%) | Over-expression category of source gene (target coverage), UCEC ([2]; UCEC = Uterine corpus endometrial carcinoma (N = 546), same cutoff): A (>=50% of tumors above the cutoff) | Expression score BRCA [3]: ++ | Expression score AML [3]: + | Expression score OSCAR [3]: ++ | Expression score NSCLC [3]: + | Expression score OC [3]: +++ | Expression score PC [3]: + | Expression score SCLC [3]: +++ | Expression score UBC [3]: + | Expression score UEC [3]: +
